Data on 8 molecules can be found in article doi:10.1101/2021.04.08.436756.

By UniProt entry, the sequences of proteins in these tests, tags left out. Residues count along the entry.
UniProt P41586, residues 21-468: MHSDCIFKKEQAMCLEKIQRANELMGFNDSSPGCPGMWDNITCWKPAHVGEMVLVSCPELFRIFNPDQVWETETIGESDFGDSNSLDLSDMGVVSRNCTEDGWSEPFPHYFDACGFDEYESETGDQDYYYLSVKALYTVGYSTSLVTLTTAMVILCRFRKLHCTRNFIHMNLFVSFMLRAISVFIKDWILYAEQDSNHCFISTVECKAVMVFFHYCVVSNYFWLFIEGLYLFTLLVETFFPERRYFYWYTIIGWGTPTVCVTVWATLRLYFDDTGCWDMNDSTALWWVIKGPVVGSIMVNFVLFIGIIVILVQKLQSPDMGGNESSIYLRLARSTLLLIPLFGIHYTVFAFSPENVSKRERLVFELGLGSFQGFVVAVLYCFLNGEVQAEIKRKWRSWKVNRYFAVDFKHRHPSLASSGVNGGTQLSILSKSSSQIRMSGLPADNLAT
UniProt Q03431, residues 27-593: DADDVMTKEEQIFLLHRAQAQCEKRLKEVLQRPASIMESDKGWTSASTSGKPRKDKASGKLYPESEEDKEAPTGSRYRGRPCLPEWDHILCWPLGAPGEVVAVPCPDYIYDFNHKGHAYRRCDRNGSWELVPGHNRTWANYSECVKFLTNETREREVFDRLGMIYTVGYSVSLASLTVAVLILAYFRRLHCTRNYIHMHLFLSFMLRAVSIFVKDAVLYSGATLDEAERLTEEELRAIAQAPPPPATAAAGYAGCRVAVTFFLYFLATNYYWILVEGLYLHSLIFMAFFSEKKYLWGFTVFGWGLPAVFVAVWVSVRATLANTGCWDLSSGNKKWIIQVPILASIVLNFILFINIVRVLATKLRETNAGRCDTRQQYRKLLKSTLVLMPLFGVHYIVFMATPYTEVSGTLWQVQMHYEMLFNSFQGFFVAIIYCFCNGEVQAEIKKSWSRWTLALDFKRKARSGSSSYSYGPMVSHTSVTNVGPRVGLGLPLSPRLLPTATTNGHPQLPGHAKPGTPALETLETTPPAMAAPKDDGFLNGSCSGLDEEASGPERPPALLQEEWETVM
UniProt P34998, residues 24-415: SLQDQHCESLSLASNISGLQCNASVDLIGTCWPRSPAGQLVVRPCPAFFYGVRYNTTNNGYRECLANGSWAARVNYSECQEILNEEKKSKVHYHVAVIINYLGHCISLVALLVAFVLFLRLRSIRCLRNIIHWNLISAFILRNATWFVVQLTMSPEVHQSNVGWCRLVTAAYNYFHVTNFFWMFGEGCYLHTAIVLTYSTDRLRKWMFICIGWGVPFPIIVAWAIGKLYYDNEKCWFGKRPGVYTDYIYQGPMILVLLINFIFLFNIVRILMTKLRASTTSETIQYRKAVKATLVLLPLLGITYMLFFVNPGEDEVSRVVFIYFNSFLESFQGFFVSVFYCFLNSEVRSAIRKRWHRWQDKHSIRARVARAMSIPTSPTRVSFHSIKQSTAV
UniProt Q16602, residues 23-461: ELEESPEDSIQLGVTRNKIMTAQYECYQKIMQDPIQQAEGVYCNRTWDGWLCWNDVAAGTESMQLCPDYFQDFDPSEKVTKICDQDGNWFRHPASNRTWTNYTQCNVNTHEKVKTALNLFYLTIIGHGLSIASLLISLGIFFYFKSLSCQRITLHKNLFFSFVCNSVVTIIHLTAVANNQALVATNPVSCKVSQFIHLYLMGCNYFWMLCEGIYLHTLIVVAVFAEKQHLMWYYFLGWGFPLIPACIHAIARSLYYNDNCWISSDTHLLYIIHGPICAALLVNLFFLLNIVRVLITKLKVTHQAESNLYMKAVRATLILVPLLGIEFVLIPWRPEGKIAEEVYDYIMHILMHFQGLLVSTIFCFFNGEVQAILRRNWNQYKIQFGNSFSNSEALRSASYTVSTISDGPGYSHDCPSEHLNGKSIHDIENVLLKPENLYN
UniProt O60895, residues 43-175: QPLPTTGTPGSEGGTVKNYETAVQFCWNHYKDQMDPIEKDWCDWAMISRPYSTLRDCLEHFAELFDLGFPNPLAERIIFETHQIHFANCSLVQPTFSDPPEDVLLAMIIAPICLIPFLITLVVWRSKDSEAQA
UniProt O60894, residues 27-148: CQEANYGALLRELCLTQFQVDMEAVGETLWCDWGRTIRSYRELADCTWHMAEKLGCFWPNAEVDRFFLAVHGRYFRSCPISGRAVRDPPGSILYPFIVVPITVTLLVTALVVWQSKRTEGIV

Where two headings read alike, the source gives them in different places. Results are given in words; binding and its absence hold for the method and conditions named. Binding seen in cells or lysates may run through a third protein. Some binding calls cover weakened binding; strength is not graded here. For part of these data: Sequences can lack the tags named with a protein.

Holding throughout (assay): FRET or BRET
In test [1] the target is T1, myc-GIPR-Rluc (UniProt P48546).
T1 sequence: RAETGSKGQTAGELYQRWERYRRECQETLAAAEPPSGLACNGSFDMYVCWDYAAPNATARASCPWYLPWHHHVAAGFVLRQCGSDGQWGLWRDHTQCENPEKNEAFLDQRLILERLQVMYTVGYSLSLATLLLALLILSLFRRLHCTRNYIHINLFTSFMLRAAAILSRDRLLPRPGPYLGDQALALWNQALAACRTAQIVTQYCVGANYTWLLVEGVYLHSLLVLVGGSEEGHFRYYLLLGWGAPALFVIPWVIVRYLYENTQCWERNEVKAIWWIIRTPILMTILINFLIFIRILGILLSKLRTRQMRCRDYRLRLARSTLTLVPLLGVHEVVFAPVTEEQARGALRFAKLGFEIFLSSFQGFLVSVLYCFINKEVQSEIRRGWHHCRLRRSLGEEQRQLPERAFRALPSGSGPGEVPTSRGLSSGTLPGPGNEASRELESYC

Test [2] deals with T2, Nluc-GIPR (UniProt P48546).
T2 sequence: T1 sequence

The target of test [3] is T2, Nluc-GIPR. This is another data set of the same source.
Test [4] deals with PAC1R-Rluc (UniProt P41586).
The target of test [5] is PTH1R-Rluc (UniProt Q03431).
The target of test [6] is T3, CRFR2-Rluc (UniProt Q13324).
T3 sequence: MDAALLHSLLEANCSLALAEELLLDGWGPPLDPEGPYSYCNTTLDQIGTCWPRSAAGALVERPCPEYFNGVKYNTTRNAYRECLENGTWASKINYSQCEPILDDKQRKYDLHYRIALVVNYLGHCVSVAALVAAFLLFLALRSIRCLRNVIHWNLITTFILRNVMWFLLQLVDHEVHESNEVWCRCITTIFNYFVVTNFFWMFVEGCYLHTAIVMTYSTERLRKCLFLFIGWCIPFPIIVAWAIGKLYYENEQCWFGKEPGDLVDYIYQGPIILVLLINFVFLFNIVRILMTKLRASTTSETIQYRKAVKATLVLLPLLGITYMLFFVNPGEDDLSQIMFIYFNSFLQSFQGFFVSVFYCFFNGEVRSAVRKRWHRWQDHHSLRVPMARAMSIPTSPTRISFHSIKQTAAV

Test [7] has as its target CRFR1-Rluc (UniProt P34998).
Test [8] has as its target T2, Nluc-GIPR. The source holds these as a separate data set.
The target of test [9] is Nluc-CLR (UniProt Q16602).
The target of test [10] is Nluc-CLR (UniProt Q16602). The source holds these as a separate data set.
Test [11] addresses T1, myc-GIPR-Rluc. The source holds these as a separate data set.
Test [12] has as its target T4, myc-GIPR-Rluc, P48546.
T4 chain: T1 sequence
The note with it: remark: other sources report otherwise.

Test [13] concerns the target T4, myc-GIPR-Rluc, P48546. The note with it: remark: other sources report otherwise.

RAMP2-YFP (from UniProt O60895 43-175): in test [1], the binding entry was “binds”.

For SNAP-RAMP2 (from UniProt O60895 43-175), the binding entry in test [2] and in test [3] was “binds” each time.

Consider SNAP-RAMP1 (from UniProt O60894 27-148), for which the binding result in [2] and in test [3] was “binds” each time.

Regarding RAMP1-YFP (from UniProt O60894 27-148), the binding entry in test [4] was “no binding”; in [5], “no binding”; in [1], “binds”; in test [6], “binds weakly”; in [7] it was “no binding”.

B1: SNAP-RAMP3 (protein, UniProt O60896 24-148)
chain: RAGGCNETGMLERLPLCGKAFADMMGKVDVWKWCNLSEFIVYYESFTNCTEMEANVVGCYWPNPLAQGFITGIHRQFFSNCTVDRVHLEDPPDEVLIPLIVIPVVLTVAMAGLVVWRSKRTDTLL
modifications: SNAP-Surface Alexa Fluor 488 on the SNAP tag
As for B1, the binding result in test [8], in [9], in test [2] and in [10] was “binds” each time.

B2: RAMP3-YFP (protein, UniProt O60896 24-148)
chain: B1 chain
For B2, the binding result in [11] is listed as “binds”.

B3: SNAP-RAMP3ΔPDZ (protein, UniProt O60896)
chain: RAGGCNETGMLERLPLCGKAFADMMGKVDVWKWCNLSEFIVYYESFTNCTEMEANVVGCYWPNPLAQGFITGIHRQFFSNCTVDRVHLEDPPDEVLIPLIVIPVVLTVAMAGLVVWRSKRT
modifications: SNAP-Surface Alexa Fluor 488 on the SNAP tag
B3: in test [8], the binding result is listed as “binds”.

B4: β-arrestin-1-YFP, P49407 1-418 (protein)
chain: MGDKGTRVFKKASPNGKLTVYLGKRDFVDHIDLVDPVDGVVLVDPEYLKERRVYVTLTCAFRYGREDLDVLGLTFRKDLFVANVQSFPPAPEDKKPLTRLQERLIKKLGEHAYPFTFEIPPNLPCSVTLQPGPEDTGKACGVDYEVKAFCAENLEEKIHKRNSVRLVIRKVQYAPERPGPQPTAETTRQFLMSDKPLHLEASLDKEIYYHGEPISVNVHVTNNTNKTVKKIKISVRQYADICLFNTAQYKCPVAMEEADDTVAPSSTFCKVYTLTPFLANNREKRGLALDGKLKHEDTNLASSTLLREGANREILGIIVSYKVKVKLVVSRGGLLGDLASSDVAVELPFTLMHPKPKEEPPHREVPENETPVDTNLIELDTNDDDIVFEDFARQRLKGMKDDKEEEEDGTGSPQLNNR
B4: the binding entry in [12] and in test [13] was “binds” throughout.
